Results on one substance are retold here after paper doi:10.1101/2022.11.22.517009.

Protein sequences, listed by entry. Tags and fused reporters are not part of them.
UniProt Q07666: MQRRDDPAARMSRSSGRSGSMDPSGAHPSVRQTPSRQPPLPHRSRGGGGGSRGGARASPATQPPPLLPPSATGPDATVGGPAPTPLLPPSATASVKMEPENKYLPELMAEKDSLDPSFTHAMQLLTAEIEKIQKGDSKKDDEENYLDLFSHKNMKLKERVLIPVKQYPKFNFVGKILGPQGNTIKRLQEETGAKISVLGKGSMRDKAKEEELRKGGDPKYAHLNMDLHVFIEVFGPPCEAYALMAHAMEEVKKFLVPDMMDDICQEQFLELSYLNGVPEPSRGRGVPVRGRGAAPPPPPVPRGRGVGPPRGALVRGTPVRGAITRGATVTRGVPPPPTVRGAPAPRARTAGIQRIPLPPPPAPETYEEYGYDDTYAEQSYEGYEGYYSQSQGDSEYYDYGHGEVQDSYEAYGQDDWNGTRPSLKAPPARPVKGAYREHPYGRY
UniProt P62993: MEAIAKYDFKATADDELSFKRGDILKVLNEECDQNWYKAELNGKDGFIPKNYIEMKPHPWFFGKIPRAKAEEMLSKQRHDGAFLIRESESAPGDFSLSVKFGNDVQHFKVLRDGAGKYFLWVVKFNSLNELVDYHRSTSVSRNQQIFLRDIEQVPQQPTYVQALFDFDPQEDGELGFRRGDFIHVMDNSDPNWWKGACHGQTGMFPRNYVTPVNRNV

No constants are given. Whether binding was seen depends on the method and setting. In cells and extracts the contact can be indirect. Some results given as binding are weak or reduced against the parent protein; the word gives no strength.

This experiment deals with Src-Associated in Mitosis 68 kDa protein (SAM68/KHDRBS1) (human (endogenous in Beas2B)) (UniProt Q07666). Put plainly: co-IP.

In the case of Grb2 (from UniProt P62993 1-217), the binding entry is given as “binds”.
